The test system of this assay is CD2F1 mice, L1210 leukemia ip, survival T/C. Kind of assay: NCI In Vivo Anticancer Drug Screen. Data for tumor model L1210 Leukemia (intraperitoneal) in CD2F1 (CDF1) mice. Conditions: higher T/C = longer survival. The procedure, abridged: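 Activity against a transplanted murine tumor was judged by comparing the compound group with a vehicle group. The outcome in the treated animals was divided by that in the controls.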

Where [1] appears, read: T/C endpoint: mean survival time, dose: 100.0 mg/kg/injection, schedule: Q01DX001 (ip), vehicle: saline.
Setting [2] is: T/C endpoint: mean survival time, dose: 200.0 mg/kg/injection, schedule: Q01DX001 (ip), vehicle: saline.
Where [3] appears, read: T/C endpoint: mean survival time, dose: 100.0 mg/kg/injection, schedule: Q01DX009 (ip), vehicle: saline with Tween-80.
Where [4] appears, read: T/C endpoint: mean survival time, dose: 200.0 mg/kg/injection, schedule: Q01DX001 (ip), vehicle: saline with Tween-80.
[5] abbreviates: T/C endpoint: mean survival time, dose: 400.0 mg/kg/injection, schedule: Q01DX001 (ip), vehicle: saline.
[6] abbreviates: T/C endpoint: mean survival time, dose: 400.0 mg/kg/injection, schedule: Q01DX009 (ip), vehicle: saline with Tween-80.
[7] abbreviates: T/C endpoint: mean survival time, dose: 400.0 mg/kg/injection, schedule: Q04DX003 (ip), vehicle: saline with Tween-80.
[8] abbreviates: T/C endpoint: mean survival time, dose: 50.0 mg/kg/injection, schedule: Q01DX009 (ip), vehicle: saline with Tween-80.
Setting [9] is: T/C endpoint: mean survival time, dose: 200.0 mg/kg/injection, schedule: Q01DX009 (ip), vehicle: saline with Tween-80.
[10] abbreviates: T/C endpoint: mean survival time, dose: 400.0 mg/kg/injection, schedule: Q01DX001 (ip), vehicle: other.

The list does not hold the whole screen: it gathers tests that were run many times, whatever their T/C, doses with no T/C, and many T/C values between a quarter and a half above the control. Other doses and runs of a compound stand elsewhere. T/C is the treated group as % of the vehicle group. Some doses have a count of surviving animals in place of a T/C: the source holds a T/C of zero for them, seemingly a mark for toxic or unscored doses. Some survivor counts are full or nearly so, which does not show that the dose was tolerated: survival well below the control is almost never listed, so the zero probably covers shortened survival too. Survivors were counted at the toxicity check, usually on the fifth day, unless a day is given; later deaths do not show. Schedules are NCI's codes, read here as Q, the interval in days (D) or hours (H), X, the number of doses. Some doses were run more than once; the results are listed from low to high. Where survival is the endpoint, the PubChem record calls one and a half times the control and up active, and a quarter to a half above the control has no call in these data; cut-offs in other NCI protocols can differ. Some T/C values carry the count of animals alive at the toxicity check (mostly the fifth day); without a count, all were alive then.

In the case of `Nc1nc(N)c2nc3c(nc2n1)C(=O)N(c1ccc(C(=O)O)cc1)C3`, the survivor count by setting is: (T/C endpoint: mean survival time, dose: 50.0 mg/kg/injection, schedule: Q01DX001 (ip), vehicle: saline) 0 of 3; under setting [1], 0 of 3; under setting [2], 0 of 3.

`CC(=O)Oc1ccc2ccccc2c1`: the survivor count runs as follows: under setting [3], 2 of 6; under setting [4], 0 of 6; (T/C endpoint: mean survival time, dose: 400.0 mg/kg/injection, schedule: Q01DX001 (ip), vehicle: saline with Tween-80) 0 of 6.

As to `O=C(O)/C=C/C(=O)Nc1ccc(Cl)c(Cl)c1`, the T/C (T/C endpoint: mean survival time, dose: 25.0 mg/kg/injection, schedule: Q01DX009 (ip), vehicle: Klucel (hydroxypropylcellulose) (HPC)) is 125 % of control. Further, the survivor count is 5 of 6 and 6 of 6 (T/C endpoint: mean survival time, dose: 200.0 mg/kg/injection, schedule: Q01DX009 (ip), vehicle: Klucel (hydroxypropylcellulose) (HPC)); 0 of 6 (T/C endpoint: mean survival time, dose: 400.0 mg/kg/injection, schedule: Q01DX009 (ip), vehicle: Klucel (hydroxypropylcellulose) (HPC)).

Turning to `OCP(CO)CO.[Cl][Hg][Cl]`, the survivor count (T/C endpoint: mean survival time, dose: 50.0 mg/kg/injection, schedule: Q04DX003 (ip), vehicle: saline) was 1 of 6.

Take `c1ccc([P+](c2ccccc2)(c2ccccc2)C2CCC2)cc1`: the survivor count is on record as 3 of 6 under setting [1], 0 of 6 under setting [2] and 0 of 6 under setting [5].

`CC(C)NC(=O)N(c1ccccc1)C(C)C`: the survivor count under setting [6] is 4 of 6.

As for `N#CC(OC(=O)c1ccccc1)c1cccc([N+](=O)[O-])c1` (stereo unspecified), the survivor count under setting [6] is 5 of 6.

Take `CC[n+]1ccc(Nc2ccc(/C=C/c3ccc4cc(Nc5cc[n+](CC)cc5)ccc4[n+]3CC)cc2)cc1`: the survivor count (T/C endpoint: mean survival time, dose: 20.0 mg/kg/injection, schedule: Q01DX009 (oral), vehicle: saline) is 4 of 6.

Take `O=C1CC2c3[nH]c4ccccc4c3CCN2C2=C1CCCC2` (stereo unspecified): under setting [7], the survivor count is on record as 1 of 6.

Take `CCCC(O)C(C)(C)[N+](=O)[O-]` (stereo unspecified): the survivor count under setting [8] is reported as 0 of 3, the survivor count under setting [3] was 0 of 3 and the survivor count under setting [9] was 0 of 3.

With `OCN(CO)c1nc(N(CO)CO)nc(N(CO)CO)n1`, the survivor count reads like this: under setting [8], 5 of 10; under setting [3], 0 of 10.

On to `CCN(CC)c1ncnc2nncnc12`, for which, where the note is “T/C endpoint: mean survival time, dose: 400.0 mg/kg/injection, schedule: Q01DX001 (ip), vehicle: carboxymethylcellulose (CMC)”, the survivor count is given as 0 of 6.

With `Oc1c(Br)cc(Br)c(O)c1Br`, the survivor count under setting [7] is 2 of 6.

On to `O=c1[nH]ccn1C1CCCCC1`, for which, under setting [10], the T/C was 126 % of control [4 of 6 alive] and the survivor count is recorded as 1 of 6.

In the case of `CC(C)(CCC(C)(C)NCCCN)NCCCN`, the survivor count reads like this: (T/C endpoint: mean survival time, dose: 100.0 mg/kg/injection, schedule: Q01DX009 (ip), vehicle: water) 6 of 6; (T/C endpoint: mean survival time, dose: 200.0 mg/kg/injection, schedule: Q01DX009 (ip), vehicle: water) 0 of 6.

On to `COc1c2c(c(OC)c3c1C(=O)c1ccccc1C3=O)CC=CC2`, for which the survivor count (T/C endpoint: mean survival time, dose: 150.0 mg/kg/injection, schedule: Q01DX009 (ip), vehicle: other) was 6 of 6.

For the compound `O=C([O][Bi]([c]1ccccc1)[c]1ccccc1)c1ccccc1`, the survivor count (T/C endpoint: median survival time, dose: 50.0 mg/kg/injection, schedule: Q01DX009 (ip), vehicle: Klucel (hydroxypropylcellulose) (HPC)) was 2 of 6 and the survivor count (T/C endpoint: median survival time, dose: 100.0 mg/kg/injection, schedule: Q01DX009 (ip), vehicle: Klucel (hydroxypropylcellulose) (HPC)) is reported as 0 of 6.

In the case of `COc1ccc2c(c1)CCC1C2CCC2(C)C(=O)NC(=O)N12` (stereo unspecified), the survivor count reads like this: under setting [4], 6 of 6; (T/C endpoint: mean survival time, dose: 200.0 mg/kg/injection, schedule: Q04DX002 (ip), vehicle: saline with Tween-80) 3 of 3.

Consider `Cc1cc2ncn(CC(=O)O)c2cc1C`, for which the survivor count under setting [6] was 2 of 6.

`Cn1ncc2c(NCc3ccccc3)ncnc21`: the T/C (T/C endpoint: mean survival time, dose: 75.0 mg/kg/injection, schedule: Q01DX009 (ip), vehicle: saline with Tween-80) was 127 % of control. The survivor count (T/C endpoint: mean survival time, dose: 150.0 mg/kg/injection, schedule: Q01DX009 (ip), vehicle: saline with Tween-80) is recorded as 4 of 6.

Take `CC1(C)C=CS1(=O)=O`: the survivor count under setting [5] was 2 of 6.

In the case of `O/N=C/C(O)(c1ccccc1)c1ccccc1`, the survivor count (T/C endpoint: mean survival time, dose: 400.0 mg/kg/injection, schedule: Q04DX002 (ip), vehicle: saline with Tween-80) is listed as 3 of 3.

With `COc1ccc(C=NCCN=Cc2ccc(OC)cc2OC)c(OC)c1`, the survivor count reads like this: (T/C endpoint: mean survival time, dose: 100.0 mg/kg/injection, schedule: Q04DX003 (ip), vehicle: saline with Tween-80) 6 of 6; (T/C endpoint: mean survival time, dose: 200.0 mg/kg/injection, schedule: Q04DX003 (ip), vehicle: saline with Tween-80) 6 of 6; under setting [7], 6 of 6.

`O=S(=O)(CCl)OCCCl`: the T/C (T/C endpoint: mean survival time, dose: 6.25 mg/kg/injection, schedule: Q01DX009 (ip), vehicle: saline with Tween-80) is 137 % of control [5 of 6 alive] and the T/C (T/C endpoint: mean survival time, dose: 25.0 mg/kg/injection, schedule: Q01DX009 (ip), vehicle: saline with Tween-80) was 129 % of control. Also, the survivor count runs as follows: under setting [8], 2 of 6; under setting [3], 0 of 6; under setting [9], 0 of 6; (T/C endpoint: median survival time, dose: 50.0 mg/kg/injection, schedule: Q01DX009 (ip), vehicle: saline with Tween-80) 6 of 6; (T/C endpoint: median survival time, dose: 100.0 mg/kg/injection, schedule: Q01DX009 (ip), vehicle: saline with Tween-80) 0 of 6; (T/C endpoint: median survival time, dose: 200.0 mg/kg/injection, schedule: Q01DX009 (ip), vehicle: saline with Tween-80) 0 of 10 and 0 of 6.

For the compound `Cc1cc(N(CCOS(C)(=O)=O)CCOS(C)(=O)=O)ccc1N=O`, for the setting “T/C endpoint: mean survival time, dose: 0.5 mg/kg/injection, schedule: Q01DX010 (ip), vehicle: saline”, the T/C was 125 % of control. Also, the survivor count is 4 of 6 (T/C endpoint: mean survival time, dose: 2.0 mg/kg/injection, schedule: Q01DX010 (ip), vehicle: saline) and 2 of 6 (T/C endpoint: mean survival time, dose: 4.0 mg/kg/injection, schedule: Q01DX010 (ip), vehicle: saline).

Consider `CCCN(C)C(=O)N(CCCl)N=O`, for which the T/C (T/C endpoint: mean survival time, dose: 156.0 mg/kg/injection, schedule: Q01DX001 (ip), vehicle: other) was 128 % of control.

`Cc1cc(N=CN(C)C)c2ccccc2n1`: the survivor count is listed as 1 of 6 (T/C endpoint: mean survival time, dose: 50.0 mg/kg/injection, schedule: Q01DX009 (ip), vehicle: other) and 0 of 6 (T/C endpoint: mean survival time, dose: 100.0 mg/kg/injection, schedule: Q01DX009 (ip), vehicle: other).

Take `Nc1nc(SCc2ccccc2)c2[nH]cnc2n1`: the T/C reads like this: (T/C endpoint: mean survival time, dose: 15.6 mg/kg/injection, schedule: Q01DX009 (ip), vehicle: saline) 149 % of control; (T/C endpoint: mean survival time, dose: 37.5 mg/kg/injection, schedule: Q01DX007 (ip), vehicle: saline) 133 % of control; (T/C endpoint: mean survival time, dose: 37.5 mg/kg/injection, schedule: Q01DX009 (ip), vehicle: saline) 142 % of control; (T/C endpoint: mean survival time, dose: 75.0 mg/kg/injection, schedule: Q01DX007 (ip), vehicle: saline) 136 % of control; (T/C endpoint: mean survival time, dose: 75.0 mg/kg/injection, schedule: Q01DX009 (ip), vehicle: saline) 140 % of control; (T/C endpoint: mean survival time, dose: 75.0 mg/kg/injection, schedule: Q03DX003 (ip), vehicle: saline) 148 % of control. Moreover, the T/C (T/C endpoint: mean survival time, dose: 125.0 mg/kg/injection, schedule: Q01DX009 (ip), vehicle: saline) was 146 % of control [5 of 6 alive]. Besides, the survivor count (T/C endpoint: mean survival time, dose: 150.0 mg/kg/injection, schedule: Q04DX003 (ip), vehicle: saline) is listed as 3 of 6 and the survivor count (T/C endpoint: median survival time, dose: 250.0 mg/kg/injection, schedule: Q01DX009 (ip), vehicle: saline) is 3 of 6.

For `Cc1cc(N)nc2ccccc12`, the survivor count is given as 1 of 3 (T/C endpoint: mean survival time, dose: 25.0 mg/kg/injection, schedule: Q04DX002 (ip), vehicle: saline with Tween-80) and 0 of 3 (T/C endpoint: mean survival time, dose: 50.0 mg/kg/injection, schedule: Q04DX002 (ip), vehicle: saline with Tween-80).

Source of the values: PubChem BioAssay AID256 (DTP/NCI, 2004).
